According to PubChem BioAssay AID248 (DTP/NCI, 2004):
The list shows only some results of the screen, not a fair sample: it gathers tests that were run many times, whatever their T/C, doses with no T/C, and many T/C values between a quarter and a half above the control. Other doses and runs of a compound stand elsewhere. T/C gives the treated animals as a percentage of the vehicle group. Some entries give survivors of the animals treated and no T/C: the source files T/C as zero there, which appears to mark a toxic dose or a test without result, not a measured value. Some doses without a T/C left all or most animals alive at the check, yet need not have been tolerated: survival well below the control is almost never listed, so the zero probably covers shortened survival too. Survivors were counted at the toxicity check, usually on the fifth day, unless a day is given; later deaths do not show. Schedule codes are those of the source, read here as Q, the interval in days (D) or hours (H), X, the number of doses. Some doses were run more than once; the results are listed from low to high. Additions like (4×) give the number of equal values in this list. For survival time, the PubChem record calls one and a half times the control and up active, and a quarter to a half above the control has no call in these data; cut-offs in other NCI protocols can differ. Some T/C values carry the count of animals alive at the toxicity check (mostly the fifth day); without a count, all were alive then.

Test system: L1210 leukemia ip in BDF1 mice, survival T/C
Experiment: NCI In Vivo Anticancer Drug Screen. Data for tumor model L1210 Leukemia (intraperitoneal) in B6D2F1 (BDF1) mice
Conditions: T/C endpoint: median survival time, vehicle: saline, higher T/C = longer survival
[1] = dose: 160.0 mg/kg/injection, schedule: Q01DX009 (ip)
[2] = dose: 500.0 mg/kg/injection, schedule: Q07DX003 (ip)
[3] = dose: 600.0 mg/kg/injection, schedule: Q01DX001 (ip)
[4] = dose: 800.0 mg/kg/injection, schedule: Q01DX001 (ip)

O=P1(N(CCCl)CCCl)NCCCO1 (centres undefined) was tested, and the T/C (dose: 108.0 mg/kg/injection, schedule: Q07DX003 (ip), evaluated on day 46) was 205 % of control, the T/C (dose: 108.0 mg/kg/injection, schedule: Q07DX004 (ip), evaluated on day 7) was 251 and 269 % of control and the T/C (dose: 108.0 mg/kg/injection, schedule: Q07DX004 (ip), evaluated on day 60) was 261 and 272 % of control. The T/C (dose: 150.0 mg/kg/injection, schedule: Q07DX003 (ip), evaluated on day 7) was 239, 278, 302 % of control, the T/C (dose: 150.0 mg/kg/injection, schedule: Q07DX003 (ip), evaluated on day 34) was 239 % of control and the T/C (dose: 150.0 mg/kg/injection, schedule: Q07DX003 (ip), evaluated on day 63) was 278 and 300 % of control. The survivor count (dose: 160.0 mg/kg/injection, schedule: Q01DX005 (ip)) was 6 of 6, the T/C [1] was 93 % of control and the survivor count [1] was 6 of 6 and 8 of 8 (2×). For the same compound, the T/C (dose: 180.0 mg/kg/injection, schedule: Q01DX001 (ip), evaluated on day 5) was 177, 193, 202, 256 % of control, the T/C (dose: 180.0 mg/kg/injection, schedule: Q01DX001 (ip), evaluated on day 7) was 187, 190, 200, 265 % of control and the T/C (dose: 180.0 mg/kg/injection, schedule: Q01DX001 (ip), evaluated on day 36) was 195 % of control. The T/C (dose: 180.0 mg/kg/injection, schedule: Q01DX001 (ip), evaluated on day 40) was 145 % of control, the T/C (dose: 180.0 mg/kg/injection, schedule: Q01DX001 (ip), evaluated on day 45) was 188 % of control and the T/C (dose: 180.0 mg/kg/injection, schedule: Q01DX001 (ip), evaluated on day 46) was 189 % of control. For the same compound, the T/C (dose: 180.0 mg/kg/injection, schedule: Q01DX001 (ip), evaluated on day 59) was 172 % of control, the T/C (dose: 180.0 mg/kg/injection, schedule: Q01DX001 (ip), evaluated on day 60) was 200 % of control and the T/C (dose: 180.0 mg/kg/injection, schedule: Q01DX001 (ip), evaluated on day 62) was 250 % of control. The T/C (dose: 180.0 mg/kg/injection, schedule: Q01DX001 (ip), evaluated on day 69) was 272 % of control, the T/C (dose: 180.0 mg/kg/injection, schedule: Q01DX001 (ip), evaluated on day 90) was 205 % of control and the T/C (dose: 180.0 mg/kg/injection, schedule: Q07DX003 (ip), evaluated on day 7) was 213, 240, 288 % of control. For the same compound, the T/C (dose: 180.0 mg/kg/injection, schedule: Q07DX003 (ip), evaluated on day 32) was 213 and 240 % of control, the T/C (dose: 180.0 mg/kg/injection, schedule: Q07DX003 (ip), evaluated on day 46) was 289 % of control and the T/C (dose: 180.0 mg/kg/injection, schedule: Q07DX004 (ip), evaluated on day 7) was 269 and 336 % of control. The T/C (dose: 180.0 mg/kg/injection, schedule: Q07DX004 (ip), evaluated on day 60) was 277 and 327 % of control, the T/C (dose: 200.0 mg/kg/injection, schedule: Q01DX001 (ip), evaluated on day 7) was 165, 173, 182, 197, 198 (3×), 205, 215, 223, 236, 237, 259, 285 % of control and the T/C (dose: 200.0 mg/kg/injection, schedule: Q01DX001 (ip), evaluated on day 26) was 165 % of control. The T/C (dose: 200.0 mg/kg/injection, schedule: Q01DX001 (ip), evaluated on day 30) was 121, 311, 337 % of control, the T/C (dose: 200.0 mg/kg/injection, schedule: Q01DX001 (ip), evaluated on day 35) was 197 % of control and the T/C (dose: 200.0 mg/kg/injection, schedule: Q01DX001 (ip), evaluated on day 43) was 180 % of control. The T/C (dose: 200.0 mg/kg/injection, schedule: Q01DX001 (ip), evaluated on day 44) was 140 % of control, the T/C (dose: 200.0 mg/kg/injection, schedule: Q01DX001 (ip), evaluated on day 45) was 200 % of control and the T/C (dose: 200.0 mg/kg/injection, schedule: Q01DX001 (ip), evaluated on day 60) was 238 % of control. For the same compound, the T/C (dose: 200.0 mg/kg/injection, schedule: Q01DX001 (ip), evaluated on day 62) was 285 % of control, the T/C (dose: 200.0 mg/kg/injection, schedule: Q01DX001 (ip), evaluated on day 63) was 215 and 223 % of control and the T/C (dose: 200.0 mg/kg/injection, schedule: Q01DX001 (ip), evaluated on day 64) was 240 % of control. For the same compound, the T/C (dose: 200.0 mg/kg/injection, schedule: Q08DX002 (ip), evaluated on day 7) was 192, 217, 300 % of control, the T/C (dose: 200.0 mg/kg/injection, schedule: Q08DX002 (ip), evaluated on day 43) was 190 % of control and the T/C (dose: 200.0 mg/kg/injection, schedule: Q08DX002 (ip), evaluated on day 44) was 210 % of control. The T/C (dose: 200.0 mg/kg/injection, schedule: Q08DX002 (ip), evaluated on day 46) was 300 % of control, the T/C (dose: 300.0 mg/kg/injection, schedule: Q01DX001 (ip), evaluated on day 5) was 240, 364, 507, 653 % of control and the T/C (dose: 300.0 mg/kg/injection, schedule: Q01DX001 (ip), evaluated on day 7) was 218, 258, 260, 282, 651, 727, 729 % of control. For the same compound, the T/C (dose: 300.0 mg/kg/injection, schedule: Q01DX001 (ip), evaluated on day 36) was 255 % of control, the T/C (dose: 300.0 mg/kg/injection, schedule: Q01DX001 (ip), evaluated on day 45) was 500 % of control and the T/C (dose: 300.0 mg/kg/injection, schedule: Q01DX001 (ip), evaluated on day 46) was 257 % of control. For the same compound, the T/C (dose: 300.0 mg/kg/injection, schedule: Q01DX001 (ip), evaluated on day 59) was 655 % of control, the T/C (dose: 300.0 mg/kg/injection, schedule: Q01DX001 (ip), evaluated on day 60) was 237 and 666 % of control and the T/C (dose: 300.0 mg/kg/injection, schedule: Q01DX001 (ip), evaluated on day 62) was 272 % of control [7 of 8 alive]. The T/C (dose: 300.0 mg/kg/injection, schedule: Q01DX001 (ip), evaluated on day 63) was 741 % of control, the T/C (dose: 300.0 mg/kg/injection, schedule: Q01DX001 (ip), evaluated on day 69) was 500 % of control and the T/C (dose: 300.0 mg/kg/injection, schedule: Q01DX001 (ip), evaluated on day 90) was 250 % of control. For the same compound, the T/C (dose: 300.0 mg/kg/injection, schedule: Q07DX003 (ip), evaluated on day 7) was 117, 194, 206, 260, 282, 371 % of control, the T/C (dose: 300.0 mg/kg/injection, schedule: Q07DX003 (ip), evaluated on day 32) was 194 and 206 % of control and the T/C (dose: 300.0 mg/kg/injection, schedule: Q07DX003 (ip), evaluated on day 34) was 117 % of control. The T/C (dose: 300.0 mg/kg/injection, schedule: Q07DX003 (ip), evaluated on day 46) was 252 % of control, the T/C (dose: 300.0 mg/kg/injection, schedule: Q07DX003 (ip), evaluated on day 63) was 282 and 371 % of control and the T/C (dose: 300.0 mg/kg/injection, schedule: Q07DX004 (ip), evaluated on day 7) was 180 and 217 % of control. For the same compound, the T/C (dose: 300.0 mg/kg/injection, schedule: Q07DX004 (ip), evaluated on day 60) was 177 and 216 % of control, the T/C (dose: 400.0 mg/kg/injection, schedule: Q01DX001 (ip), evaluated on day 7) was 48, 80, 83, 91 (2×), 114, 127, 154 (2×), 200, 224, 233, 255, 257 % of control and the T/C (dose: 400.0 mg/kg/injection, schedule: Q01DX001 (ip), evaluated on day 26) was 114 % of control [9 of 10 alive]. For the same compound, the T/C (dose: 400.0 mg/kg/injection, schedule: Q01DX001 (ip), evaluated on day 30) was 337 % of control, the T/C (dose: 400.0 mg/kg/injection, schedule: Q01DX001 (ip), evaluated on day 35) was 91 % of control [6 of 8 alive] and the T/C (dose: 400.0 mg/kg/injection, schedule: Q01DX001 (ip), evaluated on day 43) was 195 % of control. The T/C (dose: 400.0 mg/kg/injection, schedule: Q01DX001 (ip), evaluated on day 44) was 180 % of control [7 of 8 alive], the T/C (dose: 400.0 mg/kg/injection, schedule: Q01DX001 (ip), evaluated on day 45) was 250 % of control and the T/C (dose: 400.0 mg/kg/injection, schedule: Q01DX001 (ip), evaluated on day 60) was 88 % of control [7 of 8 alive]. For the same compound, the T/C (dose: 400.0 mg/kg/injection, schedule: Q01DX001 (ip), evaluated on day 63) was 127 % of control, the survivor count (dose: 400.0 mg/kg/injection, schedule: Q01DX001 (ip)) was 3 of 8, 5 of 8, 6 of 8 (2×), 6 of 6 and the T/C (dose: 400.0 mg/kg/injection, schedule: Q08DX002 (ip), evaluated on day 7) was 160, 247, 265 % of control. For the same compound, the T/C (dose: 400.0 mg/kg/injection, schedule: Q08DX002 (ip), evaluated on day 43) was 245 % of control, the T/C (dose: 400.0 mg/kg/injection, schedule: Q08DX002 (ip), evaluated on day 44) was 245 % of control and the T/C (dose: 400.0 mg/kg/injection, schedule: Q08DX002 (ip), evaluated on day 46) was 160 % of control [7 of 8 alive]. The T/C (dose: 500.0 mg/kg/injection, schedule: Q01DX001 (ip), evaluated on day 5) was 28, 77, 240 % of control, the T/C (dose: 500.0 mg/kg/injection, schedule: Q01DX001 (ip), evaluated on day 7) was 63, 83, 90, 125 % of control and the T/C (dose: 500.0 mg/kg/injection, schedule: Q01DX001 (ip), evaluated on day 60) was 237 and 322 % of control. For the same compound, the survivor count (dose: 500.0 mg/kg/injection, schedule: Q01DX001 (ip)) was 0 of 3, 0 of 8 (3×), 2 of 8, 3 of 8, 4 of 8, 5 of 8, 6 of 8, the T/C [2] was 77 and 106 % of control and the survivor count [2] was 4 of 8 and 5 of 8. For the same compound, the T/C [3] was 61, 74, 81 % of control, the survivor count [3] was 2 of 8, 3 of 8, 4 of 8 and the T/C (dose: 600.0 mg/kg/injection, schedule: Q07DX003 (ip), evaluated on day 7) was 63 and 142 % of control. For the same compound, the T/C (dose: 600.0 mg/kg/injection, schedule: Q07DX003 (ip), evaluated on day 63) was 142 % of control, the survivor count (dose: 600.0 mg/kg/injection, schedule: Q07DX003 (ip)) was 1 of 8 and the T/C (dose: 600.0 mg/kg/injection, schedule: Q08DX002 (ip), evaluated on day 7) was 63 and 115 % of control. The T/C (dose: 600.0 mg/kg/injection, schedule: Q08DX002 (ip), evaluated on day 44) was 110 % of control, the survivor count (dose: 600.0 mg/kg/injection, schedule: Q08DX002 (ip)) was 3 of 8 and the survivor count (dose: 600.0 mg/kg/injection, schedule: Q08DX003 (ip)) was 1 of 8. The T/C [4] was 39, 45 (2×), 63 (2×), 67 % of control and the survivor count [4] was 0 of 8 (3×) and 4 of 10.
